Literature values in patent US10863763B2, “Prebiotic compositions and uses thereof” (priority 2013, dated 2020).
Some entries share one result that the patent states for a list of compounds.

Conditions: in vivo

inulin
single dose at which GI adverse effects (bloating, flatulence and diarrhoea) become evident: > 20 g/day
